Data taken from patent US20260207649A1, “LSD1 INHIBITOR AND PRMT6 INHIBITOR FOR USE IN THE TREATMENT OF A DISEASE ASSOCIATED WITH GAIN-OF-FUNCTION OF ANDROGEN RECEPTOR (AR) AND/OR WITH OVEREXPRESSION OF AN AR COACTIVATOR” (FONDAZIONE TELETHON ETS(30%), priority 2022, published 2026).
Results are given in words; binding and its absence hold for the method and conditions named. In cells and extracts the contact can be indirect. Some binding calls cover weakened binding; strength is not graded here.

Chains of the proteins cited; added tags and fusions are not shown.
UniProt P10275: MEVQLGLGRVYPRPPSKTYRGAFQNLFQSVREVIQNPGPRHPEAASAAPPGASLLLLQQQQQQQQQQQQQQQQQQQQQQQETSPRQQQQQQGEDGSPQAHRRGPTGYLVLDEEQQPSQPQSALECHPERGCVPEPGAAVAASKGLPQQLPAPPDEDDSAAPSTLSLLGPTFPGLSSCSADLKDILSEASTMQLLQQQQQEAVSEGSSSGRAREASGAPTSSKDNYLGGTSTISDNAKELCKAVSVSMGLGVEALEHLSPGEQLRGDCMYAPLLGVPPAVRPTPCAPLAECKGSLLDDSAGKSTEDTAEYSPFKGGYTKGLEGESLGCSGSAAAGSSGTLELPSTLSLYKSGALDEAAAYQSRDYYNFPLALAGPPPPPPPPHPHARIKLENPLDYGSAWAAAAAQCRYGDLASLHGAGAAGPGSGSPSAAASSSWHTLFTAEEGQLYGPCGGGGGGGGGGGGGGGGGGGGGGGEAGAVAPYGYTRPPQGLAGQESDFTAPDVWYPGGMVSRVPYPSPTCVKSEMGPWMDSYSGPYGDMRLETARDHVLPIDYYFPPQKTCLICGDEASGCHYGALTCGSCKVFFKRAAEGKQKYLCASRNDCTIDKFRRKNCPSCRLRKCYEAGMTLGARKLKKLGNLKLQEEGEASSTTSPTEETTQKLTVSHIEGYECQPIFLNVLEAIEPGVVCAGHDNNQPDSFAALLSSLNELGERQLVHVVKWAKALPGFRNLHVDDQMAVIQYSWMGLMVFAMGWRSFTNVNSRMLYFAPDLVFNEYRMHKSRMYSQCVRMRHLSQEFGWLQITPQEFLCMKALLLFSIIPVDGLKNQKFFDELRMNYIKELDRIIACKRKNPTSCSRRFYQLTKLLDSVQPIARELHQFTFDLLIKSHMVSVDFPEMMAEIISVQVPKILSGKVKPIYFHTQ
UniProt Q6NZB1: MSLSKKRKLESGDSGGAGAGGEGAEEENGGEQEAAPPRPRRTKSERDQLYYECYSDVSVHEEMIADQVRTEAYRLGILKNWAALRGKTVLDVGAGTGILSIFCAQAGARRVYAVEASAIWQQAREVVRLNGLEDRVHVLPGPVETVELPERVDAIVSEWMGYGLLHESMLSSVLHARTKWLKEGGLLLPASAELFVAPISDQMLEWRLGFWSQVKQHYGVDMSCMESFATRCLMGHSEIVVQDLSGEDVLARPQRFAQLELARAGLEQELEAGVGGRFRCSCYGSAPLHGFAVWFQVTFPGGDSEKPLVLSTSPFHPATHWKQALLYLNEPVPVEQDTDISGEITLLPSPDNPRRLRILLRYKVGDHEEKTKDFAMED

Biological target: AR24Q (human) (UniProt P10275)
Assay: proximity ligation assay (PLA), MN1 cells, with Lsd1 silencing

binding: binds
Substance: endogenous PRMT6 (mouse; MN1 cells and quadriceps muscle) (from UniProt Q6NZB1 1-378) (enzyme)
